The structures appear in SMILES notation.

Data set [1] is described as follows: SPAAC selective interception of GdDO3A-DBCO monoamide chelate on azide terminated PS beads, Gd in supernatant by ICP-MS. The method, then:
To address potential stability issues associated with the GdTTHA-Alkyne and azide-PS beads system, tri-acetate mono-amide chelate systems were tested, that may experience fewer experimental difficulties. The initial SPAAC reactions were carried out with GdDO3A-DBCO monoamide chelate and azide terminated bead (FIG. 13). The Gd^3+ concentration was temporally monitored in the supernatant to gain a sense of reaction kinetics and optimal reaction times. To avoid mechanical stirring, a temperature-controlled thermomixer was used which mixed through agitation and was capable of batch testing. And the reaction was analyzed by ICP-MS.
All experiments were performed on a 100 mg bead scale with 0.5 equivalents of GdDO3A-DBCO monoamide chelate in water (1 mL) agitated at 1,000 rpm and 50° C. […] were selected: 3 minutes, 3 hours, 6 hours, 9 hours and 24 hours. The reactions were stopped at their respective time point, the sample was centrifuged and the supernatant was decanted and filtered. The beads were washed and centrifuged three times before the filtered supernatant was freeze dried and digested in HNO3 for ICP-MS analysis.
The effect of pH at relevant pH ranges of urine (~4.5-8) on the efficiency of Gd removal was investigated. Additionally, the role of an organic cosolvent was investigated to determine whether the aqueous medium is a limiting factor in efficiency. A pH range of 5-9 was tested with 1:1 v:v DMSO:H2O at 50° C. stirring at 1,000 rpm for 24 hours. The reaction mixtures were centrifuged, and the supernatant was decanted and filtered. The beads were washed and centrifuged in triplicate and the supernatants were freeze dried and digested for ICP-MS analysis, data summarized below in Table 1.
A multivariate approach was designed to establish the interaction between various levels of cosolvent volume, reaction time and temperature. The volume of DMSO was lowered with the hope of identifying other contributing factors that would lead to an enhanced outcome using a minimal amount of organic cosolvent. Additionally, the temperature ranged from 25° C. to 50° C. and the reaction time was assessed over 0.5 hours and 24 hours, and at pH 7. The scale of the beads and GdDO3A-DBCO monoamide chelate remained the same as previous trials at a 100 mg scale with 0.5 equivalents of GBCA while mixing at 1,000 rpm. The beads were centrifuged, washed, and digested in nitric acid for ICP-MS analysis using the methods described previously, results summarized below in Table 2.
Following the suboptimal results from previous trials with a smaller volume of DMSO cosolvent, the range of added cosolvent was increased to 50% v:v. Additionally, a simulated urine matrix, Surine™, was added to test if there were any significant effects from any urine constituents on the reaction efficiency. The experiments were run with variable reaction times, matrix and percentage DMSO at pH 7 and 37° C.

The nature of data set [2]: SPAAC selective interception of GdDO3A-azido monoamide chelate on DBCO-PS beads, Gd by ICP-MS. The method, then:
The GdDO3A-azido monoamide chelate and DBCO-PS beads shown in FIG. 15 were utilized in a similar experiment described previously. Due to the expensive DBCO starting material, the beads were generated on small scales. Accordingly, the scales of the experiments were reduced to 50 mg bead starting material and 0.5 equivalents of GBCA consistent with the loading capacity determined for each batch of DBCO-PS. All other conditions remained constant (1 mL reaction volume, 37° C., 1,000 rpm mixing at pH 7). Samples were prepared for ICP-MS analysis using the same method as previously described with fewer dilutions. The experiments were run with variable reaction times, matrix, and percentage DMSO.

Molecule `O=C([O-])CN1CCN(CC(=O)[O-])CCN(CC(=O)NCCC(=O)N2Cc3ccccc3C#Cc3ccccc32)CCN(CC(=O)[O-])CC1.[Gd+3]` [GdDO3A-DBCO monoamide] had an efficiency of removal in data set [1] (Table 2 study: 0-100 μL DMSO, 25-50° C., 0.5-24 hr, pH 7) of approximately 30%. In addition, the “maximum Gd removal” value in data set [1] (Table 3 study: pH 7, 37° C., variable time, matrix, % DMSO) turned out to be 82%. In addition, the “percentage of Gd removed from the reaction mixture” value in data set [1] (after three minutes, water, 50° C., 1,000 rpm, stock solution pH 2) is recorded as “over 60%”. Moreover, the “removal of Gd” value is 80% in data set [1] (in Surine with organic cosolvent); 72% in data set [1] (in Surine without organic cosolvent); approximately 98% in data set [1] (pHs 5, 7 and 9 with 50% DMSO v:v cosolvent in water).

As for `[Gd+3].[N-]=[N+]=NCCCNC(=O)CN1CCN(CC(=O)[O-])CCN(CC(=O)[O-])CCN(CC(=O)[O-])CC1` [GdDO3A-azido monoamide], in data set [2] (Table 4 study: pH 7, 37° C., variable time, matrix, % DMSO), the “maximum Gd removal” value is recorded as 73%. For the same molecule, the maximum removal stood at 65% in data set [2] (in Surine with DMSO cosolvent) and 73% in data set [2] (in Surine without cosolvent).

The values above are taken from patent US20260226079A1, “A STRATEGY FOR THE SELECTIVE REMOVAL OF MRI CONTRAST AGENTS” (Portland State University, priority 2023, published 2026).
